Measured values as given in US20250282834A1, “PEPTIDE INHIBITORS FOR CHROMODOMAIN HELICASE DNA BINDING PROTEIN 4 (CHD4)” (THE REGENTS OF THE UNIVERSITY OF CALIFORNIA, priority 2022, published 2025).
Results are given in words; binding and its absence hold for the method and conditions named. Binding seen in cells or lysates may run through a third protein. Some results given as binding are weak or reduced against the parent protein; the word gives no strength.

By UniProt entry, the sequences of proteins in these tests, tags left out.
UniProt Q14839: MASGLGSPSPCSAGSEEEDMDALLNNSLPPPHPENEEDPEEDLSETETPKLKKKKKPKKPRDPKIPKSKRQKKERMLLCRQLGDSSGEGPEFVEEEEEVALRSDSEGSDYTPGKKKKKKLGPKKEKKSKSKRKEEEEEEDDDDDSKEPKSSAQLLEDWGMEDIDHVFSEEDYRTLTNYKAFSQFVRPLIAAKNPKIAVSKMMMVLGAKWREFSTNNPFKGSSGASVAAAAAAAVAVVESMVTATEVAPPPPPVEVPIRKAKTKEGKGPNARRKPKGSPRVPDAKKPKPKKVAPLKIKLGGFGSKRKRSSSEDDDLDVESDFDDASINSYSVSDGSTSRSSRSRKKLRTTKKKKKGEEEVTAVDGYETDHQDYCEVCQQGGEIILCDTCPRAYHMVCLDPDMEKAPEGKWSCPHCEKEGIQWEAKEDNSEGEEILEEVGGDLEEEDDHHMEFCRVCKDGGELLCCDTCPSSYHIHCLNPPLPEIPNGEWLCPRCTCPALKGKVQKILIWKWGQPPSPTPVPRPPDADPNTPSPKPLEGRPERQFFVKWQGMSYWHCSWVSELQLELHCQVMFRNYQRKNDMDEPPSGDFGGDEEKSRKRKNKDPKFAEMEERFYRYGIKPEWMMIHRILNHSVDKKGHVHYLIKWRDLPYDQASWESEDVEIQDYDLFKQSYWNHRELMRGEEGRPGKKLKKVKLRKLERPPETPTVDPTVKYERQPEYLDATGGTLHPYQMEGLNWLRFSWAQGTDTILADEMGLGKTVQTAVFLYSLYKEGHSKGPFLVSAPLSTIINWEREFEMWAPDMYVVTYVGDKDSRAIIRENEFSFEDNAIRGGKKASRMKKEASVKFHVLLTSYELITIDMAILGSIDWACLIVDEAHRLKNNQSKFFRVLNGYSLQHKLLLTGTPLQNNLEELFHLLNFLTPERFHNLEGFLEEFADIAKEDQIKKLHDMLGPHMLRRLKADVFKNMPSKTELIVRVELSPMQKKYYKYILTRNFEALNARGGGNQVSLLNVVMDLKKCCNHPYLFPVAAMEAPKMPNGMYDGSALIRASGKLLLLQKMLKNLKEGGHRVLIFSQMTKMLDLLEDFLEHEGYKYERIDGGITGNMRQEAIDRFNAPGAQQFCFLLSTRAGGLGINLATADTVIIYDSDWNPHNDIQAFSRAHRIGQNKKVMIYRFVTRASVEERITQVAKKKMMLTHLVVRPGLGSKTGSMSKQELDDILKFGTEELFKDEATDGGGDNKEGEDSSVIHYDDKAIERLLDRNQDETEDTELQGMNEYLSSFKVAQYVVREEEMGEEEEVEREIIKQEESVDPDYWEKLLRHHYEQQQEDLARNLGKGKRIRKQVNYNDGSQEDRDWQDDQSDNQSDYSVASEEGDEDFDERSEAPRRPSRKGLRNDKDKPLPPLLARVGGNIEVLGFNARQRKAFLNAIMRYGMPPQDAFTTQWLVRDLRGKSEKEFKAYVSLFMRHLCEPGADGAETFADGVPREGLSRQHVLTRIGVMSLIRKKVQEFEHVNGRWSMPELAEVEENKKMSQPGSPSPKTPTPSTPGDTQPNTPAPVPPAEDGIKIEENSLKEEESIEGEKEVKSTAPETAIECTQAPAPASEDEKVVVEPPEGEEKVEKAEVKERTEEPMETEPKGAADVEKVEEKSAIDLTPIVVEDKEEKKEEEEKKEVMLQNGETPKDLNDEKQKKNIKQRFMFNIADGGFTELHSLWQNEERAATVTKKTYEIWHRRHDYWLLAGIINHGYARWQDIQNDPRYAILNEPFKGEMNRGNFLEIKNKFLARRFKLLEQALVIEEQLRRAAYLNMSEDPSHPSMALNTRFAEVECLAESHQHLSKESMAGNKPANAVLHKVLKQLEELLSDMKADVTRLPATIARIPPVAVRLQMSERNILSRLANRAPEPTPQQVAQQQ
UniProt Q9QR71: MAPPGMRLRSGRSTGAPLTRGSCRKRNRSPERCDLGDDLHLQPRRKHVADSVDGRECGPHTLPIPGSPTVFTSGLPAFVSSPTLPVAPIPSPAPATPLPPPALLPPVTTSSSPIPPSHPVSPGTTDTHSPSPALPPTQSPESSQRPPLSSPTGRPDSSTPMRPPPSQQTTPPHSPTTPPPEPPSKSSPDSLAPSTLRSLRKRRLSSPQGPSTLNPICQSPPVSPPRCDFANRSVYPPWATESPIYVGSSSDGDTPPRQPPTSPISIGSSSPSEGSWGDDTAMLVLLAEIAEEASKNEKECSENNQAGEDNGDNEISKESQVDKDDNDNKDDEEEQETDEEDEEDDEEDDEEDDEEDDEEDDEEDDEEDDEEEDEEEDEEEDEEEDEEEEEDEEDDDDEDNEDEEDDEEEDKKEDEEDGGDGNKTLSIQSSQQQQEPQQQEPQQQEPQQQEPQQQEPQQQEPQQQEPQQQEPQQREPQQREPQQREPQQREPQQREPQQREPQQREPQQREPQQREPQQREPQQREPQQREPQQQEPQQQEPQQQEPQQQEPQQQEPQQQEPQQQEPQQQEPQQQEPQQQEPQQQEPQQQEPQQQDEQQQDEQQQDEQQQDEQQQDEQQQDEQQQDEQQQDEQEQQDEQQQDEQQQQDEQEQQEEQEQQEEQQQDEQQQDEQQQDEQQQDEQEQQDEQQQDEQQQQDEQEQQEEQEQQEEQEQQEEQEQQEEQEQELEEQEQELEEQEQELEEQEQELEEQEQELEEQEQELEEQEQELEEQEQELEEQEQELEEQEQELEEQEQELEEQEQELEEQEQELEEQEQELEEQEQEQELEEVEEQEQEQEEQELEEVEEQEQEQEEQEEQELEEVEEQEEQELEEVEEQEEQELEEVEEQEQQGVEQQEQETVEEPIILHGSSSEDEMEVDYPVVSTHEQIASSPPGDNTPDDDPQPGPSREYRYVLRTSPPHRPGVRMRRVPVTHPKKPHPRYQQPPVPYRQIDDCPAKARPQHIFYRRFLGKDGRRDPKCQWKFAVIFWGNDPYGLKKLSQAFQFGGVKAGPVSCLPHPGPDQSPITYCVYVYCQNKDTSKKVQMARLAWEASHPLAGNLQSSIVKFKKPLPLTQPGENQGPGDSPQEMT

Experiments:
[1] = target: full-length Flag-CHD4 (chromodomain helicase DNA-binding protein 4) (UniProt Q14839); assay: co-precipitation of purified Flag-LANA (200 nM) and Flag-CHD4 (200 nM) with anti-LANA antibody, with or without VGN73 or mutant peptide, immunoblot
[2] = target: full-length Flag-CHD4 (chromodomain helicase DNA-binding protein 4) (UniProt Q14839); assay: co-immunoprecipitation with anti-LANA antibody, 200 nM Flag-CHD4 and 200 nM Flag-LANA, with or without VGN73 or mutant peptide (1 or 10 µM), anti-CHD4 and anti-LANA immunoblot

Flag-LANA (KSHV latency-associated nuclear antigen), full length (from UniProt Q9QR71 1-1129)
binding [1]: binds | binding [2]: binds
